These are yes or no findings as the source states them, for the method shown. Binding seen in cells or lysates may run through a third protein. Some entries that bind do so weakly or less than the wild type. For some assays here: Tags and fused reporters may be left off the sequences shown.
Legend:
[1] = molecular target: T1, His-tagged USP15 (UniProt Q9Y4E8); experiment: co-IP; His-tagged USP15 and Myc-tagged YAP1 cotransfected into HEK293T cells, harvested 48 h post-transfection; immunoprecipitation with anti-His antibody, western blot
T1 sequence: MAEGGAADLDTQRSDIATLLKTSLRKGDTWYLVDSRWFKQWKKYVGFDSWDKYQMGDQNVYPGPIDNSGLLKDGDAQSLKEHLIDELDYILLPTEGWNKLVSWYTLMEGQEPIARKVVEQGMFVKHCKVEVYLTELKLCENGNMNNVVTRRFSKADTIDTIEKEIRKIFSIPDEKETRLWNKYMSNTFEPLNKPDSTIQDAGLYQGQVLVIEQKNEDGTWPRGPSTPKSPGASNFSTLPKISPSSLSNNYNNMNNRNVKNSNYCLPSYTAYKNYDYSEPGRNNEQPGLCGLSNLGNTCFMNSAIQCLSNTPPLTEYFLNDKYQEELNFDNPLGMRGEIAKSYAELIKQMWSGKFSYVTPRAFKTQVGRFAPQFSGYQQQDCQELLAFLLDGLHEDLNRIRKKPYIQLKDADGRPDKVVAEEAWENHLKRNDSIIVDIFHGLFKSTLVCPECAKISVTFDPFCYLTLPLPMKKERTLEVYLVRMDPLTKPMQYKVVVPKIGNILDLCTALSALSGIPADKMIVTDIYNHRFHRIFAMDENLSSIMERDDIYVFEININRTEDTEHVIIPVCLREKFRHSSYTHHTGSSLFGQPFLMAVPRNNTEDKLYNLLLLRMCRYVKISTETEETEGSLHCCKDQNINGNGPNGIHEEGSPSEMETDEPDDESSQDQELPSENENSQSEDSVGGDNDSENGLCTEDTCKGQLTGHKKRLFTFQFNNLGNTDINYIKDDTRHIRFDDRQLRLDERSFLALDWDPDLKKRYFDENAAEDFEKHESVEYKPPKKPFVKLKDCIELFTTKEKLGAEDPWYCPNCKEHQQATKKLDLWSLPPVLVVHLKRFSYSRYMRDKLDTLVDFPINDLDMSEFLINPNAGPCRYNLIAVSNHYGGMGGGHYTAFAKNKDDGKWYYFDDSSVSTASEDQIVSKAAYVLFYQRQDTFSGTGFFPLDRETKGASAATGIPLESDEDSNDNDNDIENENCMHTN

Amino acid sequences for entries named in this document (tags omitted).
UniProt P46937: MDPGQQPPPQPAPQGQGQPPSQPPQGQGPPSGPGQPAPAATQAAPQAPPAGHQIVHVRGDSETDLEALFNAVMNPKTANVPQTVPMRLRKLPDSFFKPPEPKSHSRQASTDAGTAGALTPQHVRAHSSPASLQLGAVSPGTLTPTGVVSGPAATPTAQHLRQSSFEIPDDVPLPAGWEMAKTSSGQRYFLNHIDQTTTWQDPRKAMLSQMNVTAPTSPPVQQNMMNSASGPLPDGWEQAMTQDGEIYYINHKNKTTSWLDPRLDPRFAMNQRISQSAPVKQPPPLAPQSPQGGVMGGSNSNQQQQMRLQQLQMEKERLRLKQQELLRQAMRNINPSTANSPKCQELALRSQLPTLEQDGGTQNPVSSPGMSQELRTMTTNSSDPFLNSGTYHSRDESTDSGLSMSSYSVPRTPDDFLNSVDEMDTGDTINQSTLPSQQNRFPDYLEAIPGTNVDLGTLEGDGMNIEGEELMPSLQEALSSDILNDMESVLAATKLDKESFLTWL

[2] = molecular target: T2, Ubiquitin-specific protease 15 (human (endogenous in hPASMCs)) (UniProt Q9Y4E8); experiment: co-IP; endogenous proteins in lysates of control and hypoxic hPASMCs; anti-USP15, anti-YAP1 and anti-TAZ immunoprecipitations; Pierce Co-IP kit, lysate with antibody-conjugated resin at 4 °C overnight, western blot
T2 sequence: T1 sequence

Substance	binding [1]	binding [2]
Myc-tagged YAP1 (from UniProt P46937 1-504)	binds	
Yes-associated protein (YAP)-1 (from UniProt P46937 1-504)		binds
